Data reported in paper PMC11603163.

Protein sequences, listed by entry. Tags and fused reporters are not part of them.
UniProt Q9LQ02: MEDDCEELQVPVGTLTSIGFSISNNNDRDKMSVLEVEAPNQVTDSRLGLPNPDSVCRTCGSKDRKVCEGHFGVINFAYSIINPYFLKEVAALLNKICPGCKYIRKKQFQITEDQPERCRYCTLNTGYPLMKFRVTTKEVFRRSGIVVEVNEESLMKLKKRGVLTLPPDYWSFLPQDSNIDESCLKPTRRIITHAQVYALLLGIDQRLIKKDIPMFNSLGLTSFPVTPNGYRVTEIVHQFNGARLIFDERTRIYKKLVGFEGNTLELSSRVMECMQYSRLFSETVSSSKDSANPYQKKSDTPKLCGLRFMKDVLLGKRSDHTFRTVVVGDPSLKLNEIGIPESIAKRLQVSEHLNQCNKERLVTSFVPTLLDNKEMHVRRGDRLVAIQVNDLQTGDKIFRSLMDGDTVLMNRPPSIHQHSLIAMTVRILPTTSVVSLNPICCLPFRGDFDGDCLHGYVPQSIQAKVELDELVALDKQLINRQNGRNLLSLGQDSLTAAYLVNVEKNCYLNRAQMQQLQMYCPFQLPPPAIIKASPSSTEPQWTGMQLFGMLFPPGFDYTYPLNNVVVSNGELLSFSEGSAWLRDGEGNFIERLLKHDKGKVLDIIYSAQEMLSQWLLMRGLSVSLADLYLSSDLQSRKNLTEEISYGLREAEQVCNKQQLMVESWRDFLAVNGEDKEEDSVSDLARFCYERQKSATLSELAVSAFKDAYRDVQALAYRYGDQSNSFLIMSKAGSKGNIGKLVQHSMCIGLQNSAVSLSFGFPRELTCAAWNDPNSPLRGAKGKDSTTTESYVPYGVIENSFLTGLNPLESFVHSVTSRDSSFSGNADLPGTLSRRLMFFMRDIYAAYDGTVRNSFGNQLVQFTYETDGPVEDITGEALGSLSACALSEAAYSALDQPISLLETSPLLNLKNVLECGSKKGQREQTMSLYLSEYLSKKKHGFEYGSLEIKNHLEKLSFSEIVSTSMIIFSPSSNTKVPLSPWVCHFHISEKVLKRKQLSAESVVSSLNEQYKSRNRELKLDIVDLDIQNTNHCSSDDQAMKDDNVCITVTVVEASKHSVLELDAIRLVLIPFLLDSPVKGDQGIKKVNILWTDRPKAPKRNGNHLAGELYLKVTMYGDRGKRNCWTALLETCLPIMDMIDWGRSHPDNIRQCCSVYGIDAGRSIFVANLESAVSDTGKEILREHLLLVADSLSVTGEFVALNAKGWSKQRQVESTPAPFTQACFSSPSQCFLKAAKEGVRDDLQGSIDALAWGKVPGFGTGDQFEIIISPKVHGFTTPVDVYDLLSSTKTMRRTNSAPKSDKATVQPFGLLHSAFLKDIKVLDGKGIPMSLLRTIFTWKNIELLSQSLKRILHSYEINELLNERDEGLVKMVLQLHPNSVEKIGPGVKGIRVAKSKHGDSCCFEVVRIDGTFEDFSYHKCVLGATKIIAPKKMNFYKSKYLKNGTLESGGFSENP

B1: SAWADEE HOMEODOMAIN HOMOLOG 1 (SHH1) (protein, UniProt Q9XI47 1-258)
chain: MAASDDSSHYFTEFTLSEIVDMENLYKELGDQSLHKDFCQTVASTFSCSVNRNGKSSITWKQVQIWFQEKLKHQSQPKSKTLPSPPLQIHDLSNPSSYASNASNATFVGNSTFVQTRKGKASDLADLAFEAKSARDYAWYDVSSFLTYRVLRTGELEVRVRFSGFDNRHDEWVNVKTSVRERSIPVEPSECGRVNVGDLLLCFQEREDQALYCDGHVLNIKRGIHDHARCNCVFLVRYELDNTEESLGLERICRRPEE
B2: CLASSY 2 (CLSY2) (protein, UniProt F4K493 1-1261)
chain: MKKRGFYNLKHPFDPCPFEFFCSGTWKPVEYMRIEDGMMTIRLLENGYVLEDIRPFQRLRLRSRKAALSDCICFLRPDIDVCVLYRIHEDDLEPVWVDARIVSIERKPHESECSCKINVRIYIDQGCIGSEKQRINRDSVVIGLNQISILQKFYKEQSTDQFYRWRFSEDCTSLMKTRLSLGKFLPDLSWLTVTSTLKSIVFQIRTVQTKMVYQIVTDEEGSSSTLSSMNITLEDGVSLSKVVKFNPADILDDSQDLEIKQETDYYQEEDEVVELRRSKRRNVRPDIYTGCDYEPDTIDGWVRMMPYQFGKCAVNVESDEDEDDNNEDGDTNDDLYIPLSRLFIKKKKTNSREAKPKSRKGEIVVIDKRRVHGFGRKERKSELSVIPFTPVFEPIPLEQFGLNANSFGGGGSFSRSQYFDETEKYRSKGMKYGKKMTEMEEMMEADLCWKGPNQVKSFQKRTSRSSRSVAPKTEDSDEPRVYKKVTLSAGAYNKLIDTYMNNIESTIAAKDEPTSVVDQWEELKKTNFAFKLHGDMEKNLSEDGEGETSENEMLWREMELCLASSYILDDNEVRVDNEAFEKARSGCEHDYRLEEEIGMCCRLCGHVGSEIKDVSAPFAEHKKWTIETKHIEEDDIKTKLSHKEAQTKDFSMISDSSEMLAAEESDNVWALIPKLKRKLHVHQRRAFEFLWRNVAGSVEPSLMDPTSGNIGGCVISHSPGAGKTFLIIAFLTSYLKLFPGKRPLVLAPKTTLYTWYKEFIKWEIPVPVHLIHGRRTYCTFKQNKTVQFNGVPKPSRDVMHVLDCLEKIQKWHAHPSVLVMGYTSFTTLMREDSKFAHRKYMAKVLRESPGLLVLDEGHNPRSTKSRLRKALMKVGTDLRILLSGTLFQNNFCEYFNTLCLARPKFIHEVLMELDQKFKTNHGVNKAPHLLENRARKLFLDIIAKKIDASVGDERLQGLNMLKNMTNGFIDNYEGSGSGSGDALPGLQIYTLVMNSTDIQHKILTKLQDVIKTYFGYPLEVELQITLAAIHPWLVTSSNCCTKFFNPQELSEIGKLKHDAKKGSKVMFVLNLIFRVVKREKILIFCHNIAPIRMFTELFENIFRWQRGREILTLTGDLELFERGRVIDKFEEPGNPSRVLLASITACAEGISLTAASRVIMLDSEWNPSKTKQAIARAFRPGQQKVVYVYQLLSRGTLEEDKYRRTTWKEWVSCMIFSEEFVADPSLWQAEKIEDDILREIVGEDKVKSFHMIMKNEKASTG

Key:
[1] = target: T1, 3xF-tagged CLSY4 (Arabidopsis) (UniProt Q9LK10); assay: affinity purification with mass spectrometry; anti-Flag M2 magnetic beads on 10 g flowers of 3xF-tagged CLSY lines in their clsy mutant backgrounds; elution with 3x-FLAG peptide; compared to non-transgenic wild-type controls
T1 sequence: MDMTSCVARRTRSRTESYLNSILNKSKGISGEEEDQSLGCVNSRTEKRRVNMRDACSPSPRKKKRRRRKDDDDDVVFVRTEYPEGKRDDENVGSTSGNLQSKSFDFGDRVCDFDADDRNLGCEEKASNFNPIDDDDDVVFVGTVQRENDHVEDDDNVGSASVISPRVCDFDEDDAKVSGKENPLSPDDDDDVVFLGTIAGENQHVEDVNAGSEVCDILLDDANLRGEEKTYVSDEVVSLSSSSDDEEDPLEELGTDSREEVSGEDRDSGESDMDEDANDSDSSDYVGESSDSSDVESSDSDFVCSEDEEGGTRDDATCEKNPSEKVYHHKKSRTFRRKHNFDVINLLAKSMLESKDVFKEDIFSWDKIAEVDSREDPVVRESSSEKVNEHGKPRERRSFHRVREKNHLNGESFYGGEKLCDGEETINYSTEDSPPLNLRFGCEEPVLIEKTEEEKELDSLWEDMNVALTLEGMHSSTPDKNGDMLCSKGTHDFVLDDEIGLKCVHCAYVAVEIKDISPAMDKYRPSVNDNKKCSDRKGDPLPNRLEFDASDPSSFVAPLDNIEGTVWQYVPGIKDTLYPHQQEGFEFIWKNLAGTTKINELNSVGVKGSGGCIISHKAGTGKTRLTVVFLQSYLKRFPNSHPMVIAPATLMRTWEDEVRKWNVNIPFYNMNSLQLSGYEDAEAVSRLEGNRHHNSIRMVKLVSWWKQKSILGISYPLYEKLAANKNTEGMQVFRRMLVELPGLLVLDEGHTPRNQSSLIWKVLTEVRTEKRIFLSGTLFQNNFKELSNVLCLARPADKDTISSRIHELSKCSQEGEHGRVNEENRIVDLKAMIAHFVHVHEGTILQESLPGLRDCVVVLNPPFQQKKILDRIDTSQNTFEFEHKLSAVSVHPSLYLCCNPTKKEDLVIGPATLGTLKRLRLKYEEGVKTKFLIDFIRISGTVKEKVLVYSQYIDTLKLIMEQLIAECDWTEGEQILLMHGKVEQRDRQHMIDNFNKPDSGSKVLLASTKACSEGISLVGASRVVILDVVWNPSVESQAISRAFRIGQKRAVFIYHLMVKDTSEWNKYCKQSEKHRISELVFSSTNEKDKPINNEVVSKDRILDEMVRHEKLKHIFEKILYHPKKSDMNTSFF

[2] = target: NRPD1-3xFWT (Arabidopsis) (UniProt Q9LQ02); assay: affinity purification with mass spectrometry; anti-FLAG magnetic beads (uMACS DYKDDDK kit) on flower extracts of nrpd1-3 T2 lines with NRPD1-3xF WT, AAA-YPMF or CYC-AAAA; three lines, two replicates each; LC-MS/MS spectral counts
[3] = target: T2, 3xHA-CLSY1 (Arabidopsis) (UniProt Q9M297); assay: affinity purification with mass spectrometry; anti-HA IP (uMACS HA kit) of 3xHA-CLSY1 from flowers of nrpd1-3 lines with NRPD1-3xF WT or AAA-YPMF; LC-MS/MS
T2 sequence: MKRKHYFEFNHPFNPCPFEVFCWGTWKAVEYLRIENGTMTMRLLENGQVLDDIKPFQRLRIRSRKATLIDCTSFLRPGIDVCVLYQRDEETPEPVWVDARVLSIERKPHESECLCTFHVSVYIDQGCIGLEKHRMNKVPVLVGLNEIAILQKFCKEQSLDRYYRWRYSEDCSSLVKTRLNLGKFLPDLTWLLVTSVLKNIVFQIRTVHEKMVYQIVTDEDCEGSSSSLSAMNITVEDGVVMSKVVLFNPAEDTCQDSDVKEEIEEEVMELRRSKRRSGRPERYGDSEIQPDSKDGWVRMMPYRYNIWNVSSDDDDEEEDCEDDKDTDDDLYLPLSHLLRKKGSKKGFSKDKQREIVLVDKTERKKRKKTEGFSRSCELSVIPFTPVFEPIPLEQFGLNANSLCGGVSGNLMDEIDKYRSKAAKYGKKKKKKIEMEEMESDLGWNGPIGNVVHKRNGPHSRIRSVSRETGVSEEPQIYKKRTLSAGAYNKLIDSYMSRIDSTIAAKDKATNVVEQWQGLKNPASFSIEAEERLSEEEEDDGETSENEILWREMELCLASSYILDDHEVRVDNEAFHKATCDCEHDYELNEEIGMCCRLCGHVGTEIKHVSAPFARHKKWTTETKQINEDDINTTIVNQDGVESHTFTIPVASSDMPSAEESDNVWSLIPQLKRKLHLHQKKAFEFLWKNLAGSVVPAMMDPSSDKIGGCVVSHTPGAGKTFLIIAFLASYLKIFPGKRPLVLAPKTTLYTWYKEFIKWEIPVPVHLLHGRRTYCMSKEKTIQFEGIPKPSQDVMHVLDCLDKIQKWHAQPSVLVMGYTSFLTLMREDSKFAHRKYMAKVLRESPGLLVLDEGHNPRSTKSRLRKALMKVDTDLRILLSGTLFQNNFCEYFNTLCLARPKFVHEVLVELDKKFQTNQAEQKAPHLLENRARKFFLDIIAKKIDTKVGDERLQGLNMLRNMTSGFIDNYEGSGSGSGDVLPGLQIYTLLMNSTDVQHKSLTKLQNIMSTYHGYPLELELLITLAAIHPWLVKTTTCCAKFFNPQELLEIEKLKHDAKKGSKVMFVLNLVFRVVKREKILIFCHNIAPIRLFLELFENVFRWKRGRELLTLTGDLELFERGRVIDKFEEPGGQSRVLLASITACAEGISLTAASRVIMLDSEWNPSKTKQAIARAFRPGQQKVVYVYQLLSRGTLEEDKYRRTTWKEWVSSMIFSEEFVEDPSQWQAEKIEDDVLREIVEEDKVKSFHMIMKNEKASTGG

| Molecule | binding [1] | binding [2] | binding [3] |
| --- | --- | --- | --- |
| RNA-… RNA POLYMERASE 2 (RDR2) (from UniProt O82504 1-1133) | binds | binds | – |
| B1 | no binding | binds | binds |
| B2 | no binding | binds | no binding |

These are yes or no findings as the source states them, for the method shown. Binding seen in cells or lysates may run through a third protein. A yes stands for co-enrichment or nearness to the bait. Other partners may have been found. For some assays here: A no says only that the protein was not detected with the bait. For some assays here: Sequences can lack the tags named with a protein.
